PubChem BioAssay AID504804, Drosophila RNAi Screening Center | 2011
In all, the deposit lists about 19,000 reagents; this is a random part of those that have a named target and a result. Over the whole deposit, 47 (0.25%) are marked active. 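Signals are raw, not normalised; exact z-scores behind calls not deposited; actives needed confirmation, so some wells reaching 2 SD are inactive.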 The numbers tell different reagents against one gene apart. A plus sign joins genes that one reagent is predicted to hit.

Test: 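Fly genes whose loss lessens doxorubicin-driven cell death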 (primary screen)
Cells: Drosophila Kc cells
Knock-down reagent: long dsRNA against Drosophila genes, 0.5 µg dsRNA per well
Timing: 96 h (48 h knock-down, then 48 h drug)
Conditions: doxorubicin 5 µg/ml for 48 h, added 48 h after dsRNA
Measurement: 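Luminescent ATP counts per replicate, not normalised, reflecting viable cells after 48 h dsRNA knock-down followed by 48 h of 5 µg/ml doxorubicin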
Scale: raw ATP luminescence: higher = more viable cells, protection from doxorubicin
Call rule: 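z-score of 2 or more over plate mean in both duplicates, retained only when retests and separate dsRNAs confirm the protection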

no.	predicted target	reagent	raw ATP luminescence, replicate 1	raw ATP luminescence, replicate 2	call
1	Dph5 (GeneID 42663)	1	50000	54177	inactive
2	lectin-46Ca (GeneID 53523)	1	68340	63897	inactive
3	CG9701 (GeneID 39872)	1	35927	46150	inactive
4	RpL18 (GeneID 38794)	1	73580	65670	inactive
5	CG12698 (GeneID 32570)	1	4.19e5	3.13e5	inactive
6	CG18269 (GeneID 33785)	1	23423	35577	inactive
7	CG18420 (GeneID 2768924)	1	67757	72217	inactive
8	IntS12 (GeneID 43227)	1	47680	44660	inactive
9	Mys45A (GeneID 35925)	1	45447	47723	inactive
10	CG10341 (GeneID 35125)	1	86920	59973	inactive
11	CG5326 (GeneID 42655)	1	2.01e5	2.11e5	inactive
12	CG5326 (GeneID 42655)	2	54430	43960	inactive
13	Sec24AB (GeneID 36025)	1	81270	64903	inactive
14	GC2 (GeneID 41449)	1	53083	50500	inactive
15	betaTub85D (GeneID 41124)	1	55270	45673	inactive
16	prc (GeneID 43930)	1	91403	1.42e5	inactive
17	Acox3 (GeneID 33898)	1	25580	25533	inactive
18	CG11597 (GeneID 39337)	1	43847	42917	inactive
19	slx1 (GeneID 40578)	1	68483	53687	inactive
20	Tnpo-SR (GeneID 33465)	1	79063	64490	inactive
21	CG7130 (GeneID 40450)	1	59183	46190	inactive
22	Cyp4s3 (GeneID 32444)	1	3.44e5	3.65e5	inactive
23	CG13717 (retired record) (GeneID 38566)	1	1.86e5	1.94e5	inactive
24	CG13717 (retired record) (GeneID 38566)	2	94293	96920	inactive
25	CG13717 (retired record) (GeneID 38566)	3	77723	66920	inactive
26	CROT (GeneID 43332)	1	37460	44700	inactive
27	CG33093 (GeneID 42654)	1	2.09e5	2.19e5	inactive
28	Dhc36C (GeneID 35061)	1	83157	74723	inactive
29	Nepl4 (GeneID 33889)	1	1.07e5	73273	inactive
30	CG16798 (GeneID 35308)	1	43597	58097	inactive
31	Prp5 (GeneID 32464)	1	1.92e5	2.38e5	inactive
32	Phk-3 (GeneID 37997)	1	46670	52343	inactive
33	Or94a (GeneID 42711)	1	62480	74700	inactive
34	Spt (GeneID 35889)	1	37620	1.31e5	inactive
35	CG13133 (GeneID 34342)	1	49803	74637	inactive
36	CG42561 (GeneID 8674029)	1	1.78e5	1.22e5	inactive
37	RpS20 (GeneID 42464)	1	40320	41710	inactive
38	zen (GeneID 40828)	1	69197	80137	inactive
39	CG15019 (GeneID 38542)	1	66850	86770	inactive
40	CG34417 (GeneID 31591)	1	1.84e5	1.90e5	inactive
41	CG34417 (GeneID 31591)	2	29690	39430	inactive
42	CG14005 (GeneID 33808)	1	1.01e5	57090	inactive
43	CG11836 (GeneID 43007)	1	30110	38310	inactive
44	vers (GeneID 39374)	1	29230	32860	inactive
45	CG4004 (GeneID 32226)	1	3.22e5	3.31e5	inactive
46	128up (GeneID 36288)	1	61037	44070	inactive
47	CG30384 (GeneID 246584)	1	44127	82463	inactive
48	kat80 (GeneID 32581)	1	3.05e5	2.73e5	inactive
49	kat80 (GeneID 32581)	2	2.88e5	2.28e5	inactive
50	CG6688 (GeneID 42716)	1	72630	65110	inactive
51	CG11839 (GeneID 43006)	1	65700	86630	inactive
52	Obp73a (GeneID 2768955)	1	51743	44007	inactive
53	CG17198 + CG17197	1	61560	60370	inactive
54	CG17198 + CG17197	2	53220	61040	inactive
55	CG10053 (GeneID 40871)	1	33473	22300	inactive
56	Or45b (GeneID 35980)	1	33090	69653	inactive
57	CG31140 (GeneID 42836)	1	2.48e5	2.81e5	inactive
58	CG31140 (GeneID 42836)	2	48810	50837	inactive
59	CG31140 (GeneID 42836)	3	65260	84390	inactive
60	Wdr82 (GeneID 34153)	1	1.21e5	1.23e5	inactive
61	CG32695 (GeneID 31918)	1	3.93e5	3.51e5	inactive
62	Pkn (GeneID 35950)	1	74657	57900	inactive
63	Pkn (GeneID 35950)	2	50213	71993	inactive
64	Dlc90F (GeneID 42199)	1	43077	48140	inactive
65	Abp1 (GeneID 39520)	1	69747	53577	inactive
66	ssp2 (GeneID 39540)	1	21250	21517	inactive
67	wts (GeneID 43651)	1	11190	10730	inactive
68	CG34150 (GeneID 4379863)	1	2.21e5	2.12e5	inactive
69	CG4477 (GeneID 39058)	1	64870	61203	inactive
70	rgr (GeneID 35843)	1	56540	38203	inactive
71	rgr (GeneID 35843)	2	48770	39147	inactive
72	CG15255 (GeneID 34913)	1	67210	70987	inactive
73	Cad74A (GeneID 39936)	1	55930	55020	inactive
74	Marc (GeneID 36014)	1	47260	69350	inactive
75	CG31436 (GeneID 318734)	1	57280	57850	inactive
76	QIL1 (GeneID 39948)	1	69617	59030	inactive
77	Ms (GeneID 44324)	1	46013	48960	inactive
78	mdy (GeneID 44887)	1	2.52e5	2.55e5	inactive
79	mdy (GeneID 44887)	2	91413	60157	inactive
80	CG14096 (GeneID 40113)	1	72837	75477	inactive
81	CG5849 (GeneID 42556)	1	48880	64510	inactive
82	Grasp65 (GeneID 40177)	1	71477	71923	inactive
83	CG14410 (GeneID 32409)	1	3.93e5	3.67e5	inactive
84	NHP2 (GeneID 44005)	1	76370	51003	inactive
